The values below come from article PMC10344873 (2023).

Chains of the proteins cited; added tags and fusions are not shown.
UniProt Q64261: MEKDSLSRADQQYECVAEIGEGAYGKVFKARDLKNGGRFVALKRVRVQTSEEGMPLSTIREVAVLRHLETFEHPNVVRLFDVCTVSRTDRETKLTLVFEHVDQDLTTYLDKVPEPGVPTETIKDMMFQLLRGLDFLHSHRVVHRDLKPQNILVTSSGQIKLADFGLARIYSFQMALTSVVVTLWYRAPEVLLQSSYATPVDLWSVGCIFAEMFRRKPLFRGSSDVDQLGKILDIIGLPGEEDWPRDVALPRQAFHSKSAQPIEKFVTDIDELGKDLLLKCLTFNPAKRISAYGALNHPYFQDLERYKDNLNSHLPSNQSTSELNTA

Results are given in words; binding and its absence hold for the method and conditions named. Binding seen in cells or lysates may run through a third protein. Some entries that bind do so weakly or less than the wild type. Where a sequence is shown, tags or fusion partners need not be part of it.

The target in this experiment is 3×Flag-tagged wild type CDK6 (mouse (by the printed Gene ID 12571; not stated in words for CDK6)) (UniProt Q64261). Briefly: co-IP; LUMIER assay: p16-NLuc and Flag-tagged CDK6 co-expressed in HEK293 cells; lysate (150 mM NaCl, 10 mM sodium phosphate pH 7.2, 0.05% Triton-X100) immunoprecipitated with anti-Flag antibody and protein G-Sepharose, 3 h at 4 °C; NLuc bioluminescence read on-bead, normalised on input, relative to wild type; n = 6.

B1: wild type p16-NLuc (mouse p16 tagged with NanoLuc luciferase) (protein, UniProt P51480 1-168)
chain: MESAADRLARAAAQGRVHDVRALLEAGVSPNAPNSFGRTPIQVMMMGNVHVAALLLNYGADSNCEDPTTFSRPVHDAAREGFLDTLVVLHGSGARLDVRDAWGRLPLDLAQERGHQDIVRYLRSAGCSLCSAGWSLCTAGNVAQTDGHSFSSSTPRALELRGQSQEQS
Consider B1, for which the binding entry is listed as “binds”.
